Results taken from PubChem BioAssay AID2685 (National Center for Advancing Translational Sciences (NCATS), 2010).
Some of the results follow. The main result of the screen is listed elsewhere. These columns were measured beside it and carry no call. Most of these compounds were active or inconclusive in the main read-out, so they are no random draw. Words in brackets tell the shape of the fitted curve; partial curves, single points and poor fits give uncertain potencies.

Assay: qHTS Assay for Lipid Storage Modulators in Drosophila S3 Cells;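 for cell number change: cells counted by Cell Tracker Red CMTPX staining in the red channel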
Settings: BODIPY lipid droplet fluorescence, 18-24 h; for cell number change: measured here: cell count max response, cells fed with added oleic acid
How it was run: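 Drosophila S3 cells loaded with oleic acid (400 uM, as added) and compounds at several concentrations; lipid droplets imaged by 488-nm laser-scanning cytometry, 500–530 nm intensity and object ratio to cell channel. Percent activity normalized to 20 uM Triacsin C.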

[1] = measured here: lipid fluorescence (Fed channel) AC50, cells fed with added oleic acid
[2] = measured here: cell number channel AC50, cells fed with added oleic acid

SMILES	cell number change	AC50 [1]	AC50 [2]
CCN(CC)C(=O)c1c[nH]c2ccc(S(=O)(=O)Nc3cc(C)cc(C)c3)cc2c1=O	4.26%	6.51 µM [falling, single point]	
CCOc1ccccc1NC(=O)CCC(=O)Nc1ccc2nc(N3CCN(C)CC3)cc(C)c2c1	-45.2%	9.2 µM [falling, partial curve]	10.3 µM [falling, partial curve]
CCOC(=O)C1CCCN(C/C=C/c2ccccc2[N+](=O)[O-])C1 (centres undefined)	-15.6%	6.51 µM [falling, full curve, poor fit]	
CN(CCC#N)C(=O)COC(=O)c1cccnc1Nc1ccccc1F	59%		29.1 µM [rising, single point]
CCN(C(=O)CN1CCN(S(=O)(=O)c2cc(Cl)ccc2Cl)CC1)c1c(N)n(Cc2ccccc2)c(=O)[nH]c1=O	-3.27%	0.92 µM [falling, full curve]	
CC(C)(C)S(=O)(=O)/C(C#N)=N/Nc1ccc(S(N)(=O)=O)cc1	-7.19%	0.58 µM [rising, partial curve, poor fit]	0.731 µM [rising, single point]
CCN1C(=O)c2ccccc2S(=O)(=O)c2ccc(C(=O)NCCOC)cc21	-16.7%		
CCOC(=O)N1CCN(CC(O)COCc2ccccc2)CC1 (centres undefined)	-0.99%	0.651 µM [falling, full curve, poor fit]	
O=C(COc1ccc(Br)cc1Br)NC(=S)Nc1cccc(CO)c1	2.82%	0.00461 µM [rising, full curve, poor fit]	
CCN(C(=O)COC(=O)c1nc(Cl)ccc1Cl)C1CCS(=O)(=O)C1 (centres undefined)	-10%		
COc1cccc(C2NC(=O)CCC2[N+](=O)[O-])c1 (centres undefined)	82%	6.51 µM [rising, single point]	9.2 µM [rising, partial curve]
Cc1cc(C(=O)N/N=C/c2c(C)nn(-c3ccccc3)c2C)c(C)o1	15%	0.291 µM [rising, full curve, poor fit]	
CCn1c(SCC(=O)c2ccc3ccccc3c2)nnc1-c1ccco1	40.4%		23.1 µM [rising, single point]
CCCn1c(SCC(=O)Nc2nc(C)c(C(=O)OC)s2)nnc1C(C)C	-2.58%	1.3 µM [rising, partial curve]	
C#Cc1ccc(CN2CCCC(C(=O)Nc3ccccc3Oc3cccnc3)C2)cc1 (centres undefined)	42.9%		29.1 µM [rising, single point]
Cc1ccc(NS(=O)(=O)c2cc3c(cc2C)NC(=O)CO3)cc1	-23.1%		
CCc1cccc(C)c1NC(=O)CN1CCN(S(=O)(=O)c2ccc(C(C)(C)C)cc2)CC1		0.13 µM [falling, full curve, poor fit]	
Cc1ccnc(NC(=O)CCC(=O)N(CC(=O)NCc2ccc(F)cc2)Cc2ccco2)c1	5.22%		
O=C(COC(=O)CNC(=O)c1ccc(Br)cc1)Nc1nnc(-c2ccccc2)o1	20.5%		
Cc1ccc(S(=O)(=O)Nc2cc(Cl)ccc2-n2cncn2)cc1	32.3%	16.4 µM [rising, partial curve]	29.1 µM [rising, single point]
COc1ccc(NC(=O)C2=CC(c3ccco3)=NS(=O)(=O)N2C)cc1OC	19%	4.11 µM [rising, full curve, poor fit]	

SMILES	cell number change	AC50 [1]	AC50 [2]
CCN(CC)S(=O)(=O)c1ccc(C)c(NC(=S)N2CCN(Cc3ccc4c(c3)OCO4)CC2)c1	-1.59%	0.0517 µM [rising, full curve, poor fit]	
CCC(C)[C@H]1CNCCN1CCc1cccc(F)c1 (some centres undefined)	10.6%	0.231 µM [falling, full curve, poor fit]	
CC1(C)Cc2c(c(N3CCCC3)nc3sc4c(N5CCNCC5)ncnc4c23)CO1	25.7%		0.58 µM [rising, full curve, poor fit]
COc1ccc(OCC(=O)OCC(=O)NCC2CCCCC2)cc1	8.78%	23.1 µM [rising, single point]	
CCc1sc(NC(=O)CCC(=O)O)nc1-c1cc2ccccc2oc1=O	-16.8%	0.00517 µM [falling, full curve, poor fit]	
Cc1ccc(N(CC(=O)NC2CCC(C)CC2)S(=O)(=O)c2cccnc2)cc1 (centres undefined)	8.61%		
COc1cc(OC)c(/C=N/NC(=O)c2ccncc2)cc1Br	1.9%	20.6 µM [rising, single point]	
COc1ccc(-n2nc(C(=O)NCC(=O)N(C)Cc3ccccc3)c3ccccc3c2=O)cc1OC	-4.05%	29.1 µM [falling, partial curve, poor fit]	
CCNC(=S)Nc1ccc(S(=O)(=O)Nc2cc(C)nc(C)n2)cc1	-17.4%	4.11 µM [falling, full curve]	
OC(CNC1CCCCC1)CNC1CCCCC1	31.4%		29.1 µM [rising, single point]
N#Cc1nc(-c2ccccc2)oc1NCC1CCCO1 (centres undefined)	-60.4%	29.1 µM [falling, single point]	29.1 µM [falling, single point]
CC(C)CCn1nnnc1C(c1ccccc1)N1CCN(C)CC1 (centres undefined)	-30.8%	29.1 µM [rising, single point]	0.0146 µM [falling, full curve]
CCS(=O)(=O)N1Cc2ccccc2CC1C(=O)NCc1cccc(OC)c1 (centres undefined)	17.3%		
Brc1c(CSc2nncn2-c2ccccc2)nc2ncccn12	31.5%		6.51 µM [rising, full curve, poor fit]
CC(Sc1nc(-c2ccccc2)cc(C(F)(F)F)n1)C(=O)N1CCC(C(N)=O)CC1 (centres undefined)	-22.7%	29.1 µM [falling, single point]	
COc1ccc2[nH]c(C(=O)NCCCn3ccnc3)cc2c1	14.6%	0.206 µM [rising, full curve, poor fit]	
O=C(Nc1ccc(Cl)cn1)C1CC1	-2.05%		
COc1ccc(CC2(C)OC(c3ccccc3)=NN2C(C)=O)cc1 (centres undefined)	-21.9%	2.06 µM [rising, partial curve, poor fit]	
Cc1cc(C)c2c(NC(=O)CCl)nn(C)c2n1		6.51 µM [rising, single point]	
O=[N+]([O-])c1cc(-c2nc(-c3ccncc3)no2)cc([N+](=O)[O-])c1	-16.2%		
O=C(Cc1ccccc1)NN1C(=O)/C(=C/c2ccccc2C(=O)O)SC1=S	-7.31%	6.51 µM [falling, partial curve]	

Laid out differently: 3 of the compounds above.
SMILES | cell number change | AC50 [1] | AC50 [2]
CCN(CC)S(=O)(=O)c1ccc(C)c(NC(=S)N2CCN(Cc3ccc4c(c3)OCO4)CC2)c1 | -1.59% | 0.0517 µM [rising, full curve, poor fit] | 
CCC(C)[C@H]1CNCCN1CCc1cccc(F)c1 (some centres undefined) | 10.6% | 0.231 µM [falling, full curve, poor fit] | 
CC1(C)Cc2c(c(N3CCCC3)nc3sc4c(N5CCNCC5)ncnc4c23)CO1 | 25.7% |  | 0.58 µM [rising, full curve, poor fit]

(further entries)

SMILES	cell number change	AC50 [1]	AC50 [2]
CCOc1ccc(CCNC(=O)COC(=O)c2cccc(OC)c2O)cc1OCC	-32.3%	29.1 µM [falling, single point]	
CN(Cc1cn(C)nc1-c1ccccc1F)C1CCOC1 (centres undefined)	12.8%	25.9 µM [rising, single point]	
CCOC(=O)c1ccc(S(=O)(=O)N2CCN(CCC#N)CC2)cc1	7.69%	6.51 µM [falling, single point]	
CCCNC(=O)c1ccccc1NC(=O)CSCc1ccc(OC)cc1		0.731 µM [rising, single point]	
CCOC(=O)C1=C(C)N=c2s/c(=C\c3ccc(O)c([N+](=O)[O-])c3)c(=O)n2C1c1ccccc1OC (centres undefined)	-9.59%	32.6 µM [falling, single point]	
Cc1ccc(Cl)cc1N1CCN(Cc2nc3c(c(=O)[nH]c(=O)n3C)n2CCc2ccccc2)CC1	20.8%		
Cc1ccc(C2=N/C(=C/N3CCOCC3)C(=O)O2)cc1		29.1 µM [rising, single point]	
COc1ccc(C2CCN(Cc3cccnc3)CC2O)cc1 (centres undefined)	21.5%	10.3 µM [rising, partial curve, poor fit]	
CN(c1ccccc1C(=O)Nc1ccc(CC#N)cc1)S(=O)(=O)c1ccccc1	-23.6%	29.1 µM [falling, single point]	
Cc1cccn2c(=O)nc(SCC(=O)N3CCCC3)nc12		2.06 µM [rising, partial curve]	1.84 µM [rising, partial curve]
Cc1nc2ccccc2n1CC(=O)OCC(=O)NCCc1ccccc1	-30.6%	8.2 µM [rising, partial curve]	0.82 µM [falling, full curve, poor fit]
O=C(CCn1c(=O)oc2ccccc21)N1CCCCCC1	18.6%	29.1 µM [rising, single point]	
CC(C)N1CCc2c(sc(NC(=O)c3ccco3)c2C(N)=O)C1	15.1%		0.651 µM [rising, single point]
CC(=O)N1CCN(c2nnnn2-c2ccccc2)CC1	-21.1%	20.6 µM [falling, partial curve]	
COC(=O)c1cc(NC(=O)c2cc(C(C)(C)C)nn2Cc2ccc(F)cc2)ccc1N1CCOCC1	-51.6%	32.6 µM [falling, single point]	10.3 µM [falling, single point]
O=C(c1ccco1)N1CCCC(c2nc3c(nnn3Cc3c(Cl)cccc3Cl)c(=O)[nH]2)C1 (centres undefined)	0.806%	25.9 µM [falling, single point]	
O=C(Cc1cccs1)Nc1nnc(SCC(=O)NC2CCCCC2)s1	0.477%		
CC(=O)c1sc2nc(-c3ccccc3)cc(C)c2c1N	-23.3%	29.1 µM [falling, single point]	
NC(=O)c1ccc(-n2nnnc2Oc2ccccc2C(=O)N2CCOCC2)cc1			6.51 µM [falling, single point]
